Results are given in words; binding and its absence hold for the method and conditions named. Binding seen in cells or lysates may run through a third protein. Some entries that bind do so weakly or less than the wild type. Where a sequence is shown, tags or fusion partners need not be part of it.
Target: T1, CRK2-YFP (cysteine-rich receptor-like protein kinase CRK2 tagged with YFP) (Arabidopsis thaliana) (UniProt Q9CAL3)
T1 sequence: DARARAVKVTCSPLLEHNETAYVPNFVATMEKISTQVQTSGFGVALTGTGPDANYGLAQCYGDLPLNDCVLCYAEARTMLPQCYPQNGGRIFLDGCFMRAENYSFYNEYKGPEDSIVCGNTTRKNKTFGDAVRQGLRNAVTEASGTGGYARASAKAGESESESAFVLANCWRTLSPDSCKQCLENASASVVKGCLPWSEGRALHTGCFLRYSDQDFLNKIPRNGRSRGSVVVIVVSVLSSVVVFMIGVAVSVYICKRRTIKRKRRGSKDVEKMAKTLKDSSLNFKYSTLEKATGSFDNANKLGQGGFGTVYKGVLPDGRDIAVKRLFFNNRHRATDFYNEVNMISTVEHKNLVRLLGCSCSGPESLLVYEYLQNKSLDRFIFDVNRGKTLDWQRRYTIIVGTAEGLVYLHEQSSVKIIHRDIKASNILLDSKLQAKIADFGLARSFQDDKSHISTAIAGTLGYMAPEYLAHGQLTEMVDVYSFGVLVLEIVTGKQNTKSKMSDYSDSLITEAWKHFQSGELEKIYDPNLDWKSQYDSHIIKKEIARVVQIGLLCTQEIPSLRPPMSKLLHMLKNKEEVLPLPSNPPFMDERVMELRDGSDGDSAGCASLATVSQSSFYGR
Test: co-IP

Chains of the proteins cited; added tags and fusions are not shown.
UniProt Q9FIJ0: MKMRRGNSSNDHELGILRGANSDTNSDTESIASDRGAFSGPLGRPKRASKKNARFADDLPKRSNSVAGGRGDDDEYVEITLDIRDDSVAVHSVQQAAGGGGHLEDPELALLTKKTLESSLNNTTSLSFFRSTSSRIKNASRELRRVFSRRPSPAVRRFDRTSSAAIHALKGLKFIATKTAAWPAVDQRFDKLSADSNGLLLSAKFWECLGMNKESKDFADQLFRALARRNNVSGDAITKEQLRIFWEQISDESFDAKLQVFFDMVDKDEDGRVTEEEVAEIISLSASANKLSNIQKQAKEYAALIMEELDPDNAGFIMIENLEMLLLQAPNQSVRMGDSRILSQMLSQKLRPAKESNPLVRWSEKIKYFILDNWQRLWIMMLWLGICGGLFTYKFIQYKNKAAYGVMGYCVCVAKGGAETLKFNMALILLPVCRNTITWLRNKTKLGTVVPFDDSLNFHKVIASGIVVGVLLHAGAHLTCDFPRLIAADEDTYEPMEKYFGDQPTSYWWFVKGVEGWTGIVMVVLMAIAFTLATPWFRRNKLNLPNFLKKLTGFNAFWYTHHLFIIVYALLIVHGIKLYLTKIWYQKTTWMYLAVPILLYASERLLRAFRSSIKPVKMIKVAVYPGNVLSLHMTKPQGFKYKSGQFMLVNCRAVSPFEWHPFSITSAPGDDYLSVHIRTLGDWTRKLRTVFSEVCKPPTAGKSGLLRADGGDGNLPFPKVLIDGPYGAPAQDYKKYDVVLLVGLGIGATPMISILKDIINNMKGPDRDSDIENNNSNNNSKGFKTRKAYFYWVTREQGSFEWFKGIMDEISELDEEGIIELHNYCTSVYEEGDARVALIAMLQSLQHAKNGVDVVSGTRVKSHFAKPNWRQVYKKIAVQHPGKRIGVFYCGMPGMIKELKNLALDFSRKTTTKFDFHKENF

binding: binds
Substance: FLAG-RBOHD (NADPH oxidase respiratory burst oxidase homolog D with FLAG tag) (from UniProt Q9FIJ0 1-921) (enzyme)
